According to the supplement of paper PMC12823440, “Inhibitors supercharge kinase turnover through native proteolytic circuits” (Nature, 2025):
Where a name gives a salt, the structure may show the parent alone. Some of the results follow. The calls rarely recur for the same compound in another form.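 Kinases, fused to nanoluciferase, were expressed in K562 cells; luminescence was measured every 4 h from 2 to 18 h as percent of control (DMSO = 100%, positive control = 0%). A time point is decreased if signal falls significantly (2 sigma). Hits were called by the authors by a rule that is not shown; the count of time points alone does not decide it.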

Amino acid sequences for entries named in this document (tags omitted). A change or cut given only in a name is not applied to a line headed by its entry.
UniProt P29317, whole entry: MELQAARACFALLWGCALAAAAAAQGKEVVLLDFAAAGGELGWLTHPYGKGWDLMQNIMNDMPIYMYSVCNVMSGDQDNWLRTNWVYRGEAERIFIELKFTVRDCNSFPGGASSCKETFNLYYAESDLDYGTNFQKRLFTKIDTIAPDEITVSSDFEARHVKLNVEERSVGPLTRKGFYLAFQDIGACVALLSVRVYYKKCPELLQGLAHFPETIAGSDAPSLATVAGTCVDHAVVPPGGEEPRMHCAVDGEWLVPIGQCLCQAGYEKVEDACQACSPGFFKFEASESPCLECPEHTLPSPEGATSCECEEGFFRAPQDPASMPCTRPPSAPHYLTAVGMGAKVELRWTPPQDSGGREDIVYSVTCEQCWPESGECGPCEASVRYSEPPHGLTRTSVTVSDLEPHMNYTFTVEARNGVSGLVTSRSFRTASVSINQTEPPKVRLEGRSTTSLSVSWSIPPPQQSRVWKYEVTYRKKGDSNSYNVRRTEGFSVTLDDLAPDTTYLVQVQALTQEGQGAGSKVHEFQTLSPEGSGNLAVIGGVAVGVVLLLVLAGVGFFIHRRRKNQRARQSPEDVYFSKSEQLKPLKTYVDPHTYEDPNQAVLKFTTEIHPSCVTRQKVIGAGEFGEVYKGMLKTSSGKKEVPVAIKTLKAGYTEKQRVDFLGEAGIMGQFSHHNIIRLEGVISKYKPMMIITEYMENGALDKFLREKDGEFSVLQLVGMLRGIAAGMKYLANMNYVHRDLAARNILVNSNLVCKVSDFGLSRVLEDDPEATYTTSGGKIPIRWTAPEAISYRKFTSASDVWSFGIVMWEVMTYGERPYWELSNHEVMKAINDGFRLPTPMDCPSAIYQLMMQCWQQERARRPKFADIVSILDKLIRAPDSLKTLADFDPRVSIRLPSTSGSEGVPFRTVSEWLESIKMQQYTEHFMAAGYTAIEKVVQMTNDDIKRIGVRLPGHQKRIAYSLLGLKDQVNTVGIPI
UniProt P21860, whole entry: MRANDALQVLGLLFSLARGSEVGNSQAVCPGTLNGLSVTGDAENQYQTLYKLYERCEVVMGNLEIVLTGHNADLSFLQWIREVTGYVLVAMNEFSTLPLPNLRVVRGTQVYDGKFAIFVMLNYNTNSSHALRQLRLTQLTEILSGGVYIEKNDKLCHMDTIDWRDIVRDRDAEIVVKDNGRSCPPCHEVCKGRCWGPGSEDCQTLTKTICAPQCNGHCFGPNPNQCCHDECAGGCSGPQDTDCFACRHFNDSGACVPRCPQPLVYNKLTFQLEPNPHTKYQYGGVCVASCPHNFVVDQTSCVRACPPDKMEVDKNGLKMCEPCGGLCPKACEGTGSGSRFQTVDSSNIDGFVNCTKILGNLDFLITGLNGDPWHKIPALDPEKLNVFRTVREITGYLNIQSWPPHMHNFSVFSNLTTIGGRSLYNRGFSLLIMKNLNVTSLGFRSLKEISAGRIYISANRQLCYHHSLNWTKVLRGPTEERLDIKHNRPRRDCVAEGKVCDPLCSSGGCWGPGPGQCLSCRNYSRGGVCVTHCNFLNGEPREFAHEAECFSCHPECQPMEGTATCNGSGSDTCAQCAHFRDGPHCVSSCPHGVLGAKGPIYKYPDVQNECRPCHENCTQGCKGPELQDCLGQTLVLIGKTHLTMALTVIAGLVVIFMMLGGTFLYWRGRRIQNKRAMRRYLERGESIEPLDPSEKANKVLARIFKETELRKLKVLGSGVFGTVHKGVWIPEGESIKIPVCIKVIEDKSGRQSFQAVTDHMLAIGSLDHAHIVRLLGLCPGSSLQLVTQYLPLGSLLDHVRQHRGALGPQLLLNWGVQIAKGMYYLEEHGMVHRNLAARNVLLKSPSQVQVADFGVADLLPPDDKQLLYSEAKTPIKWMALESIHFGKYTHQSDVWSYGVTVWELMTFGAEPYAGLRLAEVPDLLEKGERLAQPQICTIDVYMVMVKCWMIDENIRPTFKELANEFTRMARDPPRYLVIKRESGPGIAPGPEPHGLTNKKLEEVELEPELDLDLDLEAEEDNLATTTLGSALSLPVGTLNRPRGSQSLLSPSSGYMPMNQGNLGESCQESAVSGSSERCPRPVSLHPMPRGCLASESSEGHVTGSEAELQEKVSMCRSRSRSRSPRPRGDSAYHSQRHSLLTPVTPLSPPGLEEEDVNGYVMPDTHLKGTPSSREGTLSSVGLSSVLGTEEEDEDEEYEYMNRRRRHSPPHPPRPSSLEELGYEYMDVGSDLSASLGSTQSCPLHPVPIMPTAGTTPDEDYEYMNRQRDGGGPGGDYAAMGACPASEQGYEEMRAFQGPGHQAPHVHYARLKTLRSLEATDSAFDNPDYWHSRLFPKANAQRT
UniProt Q15303, whole entry R711C: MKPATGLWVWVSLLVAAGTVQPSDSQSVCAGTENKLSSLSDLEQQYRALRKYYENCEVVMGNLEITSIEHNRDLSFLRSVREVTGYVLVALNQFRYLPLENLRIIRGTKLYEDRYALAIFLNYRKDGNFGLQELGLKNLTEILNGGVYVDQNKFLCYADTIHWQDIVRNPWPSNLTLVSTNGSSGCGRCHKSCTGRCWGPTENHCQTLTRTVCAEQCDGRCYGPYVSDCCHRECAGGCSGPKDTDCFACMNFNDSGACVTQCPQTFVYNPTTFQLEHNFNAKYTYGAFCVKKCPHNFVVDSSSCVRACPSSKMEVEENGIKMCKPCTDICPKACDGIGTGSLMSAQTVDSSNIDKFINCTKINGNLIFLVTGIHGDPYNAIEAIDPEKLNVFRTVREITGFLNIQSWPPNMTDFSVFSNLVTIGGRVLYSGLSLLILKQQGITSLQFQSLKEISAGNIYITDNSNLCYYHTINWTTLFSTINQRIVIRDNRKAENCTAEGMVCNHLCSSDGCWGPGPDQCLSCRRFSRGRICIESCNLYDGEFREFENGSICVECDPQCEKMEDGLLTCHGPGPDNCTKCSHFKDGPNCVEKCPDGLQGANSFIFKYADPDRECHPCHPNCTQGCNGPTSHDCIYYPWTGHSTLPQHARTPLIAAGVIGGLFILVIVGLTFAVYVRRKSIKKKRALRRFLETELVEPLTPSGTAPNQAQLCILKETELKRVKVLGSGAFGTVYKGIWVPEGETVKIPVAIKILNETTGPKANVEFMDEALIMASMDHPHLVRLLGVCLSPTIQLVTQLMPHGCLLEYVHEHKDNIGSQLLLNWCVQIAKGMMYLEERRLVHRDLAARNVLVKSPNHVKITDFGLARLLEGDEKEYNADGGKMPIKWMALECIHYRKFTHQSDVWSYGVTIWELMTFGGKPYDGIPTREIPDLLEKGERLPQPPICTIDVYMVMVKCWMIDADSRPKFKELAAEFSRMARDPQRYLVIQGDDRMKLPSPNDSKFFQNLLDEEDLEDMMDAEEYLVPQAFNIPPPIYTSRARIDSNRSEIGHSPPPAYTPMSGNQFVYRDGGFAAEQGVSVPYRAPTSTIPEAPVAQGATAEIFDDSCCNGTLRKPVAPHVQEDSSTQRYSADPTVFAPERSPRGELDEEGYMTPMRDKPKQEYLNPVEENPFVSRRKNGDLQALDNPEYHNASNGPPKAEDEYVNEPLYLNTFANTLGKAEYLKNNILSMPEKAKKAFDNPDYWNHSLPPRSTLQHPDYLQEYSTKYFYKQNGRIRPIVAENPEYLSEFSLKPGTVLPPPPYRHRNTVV
UniProt O75460: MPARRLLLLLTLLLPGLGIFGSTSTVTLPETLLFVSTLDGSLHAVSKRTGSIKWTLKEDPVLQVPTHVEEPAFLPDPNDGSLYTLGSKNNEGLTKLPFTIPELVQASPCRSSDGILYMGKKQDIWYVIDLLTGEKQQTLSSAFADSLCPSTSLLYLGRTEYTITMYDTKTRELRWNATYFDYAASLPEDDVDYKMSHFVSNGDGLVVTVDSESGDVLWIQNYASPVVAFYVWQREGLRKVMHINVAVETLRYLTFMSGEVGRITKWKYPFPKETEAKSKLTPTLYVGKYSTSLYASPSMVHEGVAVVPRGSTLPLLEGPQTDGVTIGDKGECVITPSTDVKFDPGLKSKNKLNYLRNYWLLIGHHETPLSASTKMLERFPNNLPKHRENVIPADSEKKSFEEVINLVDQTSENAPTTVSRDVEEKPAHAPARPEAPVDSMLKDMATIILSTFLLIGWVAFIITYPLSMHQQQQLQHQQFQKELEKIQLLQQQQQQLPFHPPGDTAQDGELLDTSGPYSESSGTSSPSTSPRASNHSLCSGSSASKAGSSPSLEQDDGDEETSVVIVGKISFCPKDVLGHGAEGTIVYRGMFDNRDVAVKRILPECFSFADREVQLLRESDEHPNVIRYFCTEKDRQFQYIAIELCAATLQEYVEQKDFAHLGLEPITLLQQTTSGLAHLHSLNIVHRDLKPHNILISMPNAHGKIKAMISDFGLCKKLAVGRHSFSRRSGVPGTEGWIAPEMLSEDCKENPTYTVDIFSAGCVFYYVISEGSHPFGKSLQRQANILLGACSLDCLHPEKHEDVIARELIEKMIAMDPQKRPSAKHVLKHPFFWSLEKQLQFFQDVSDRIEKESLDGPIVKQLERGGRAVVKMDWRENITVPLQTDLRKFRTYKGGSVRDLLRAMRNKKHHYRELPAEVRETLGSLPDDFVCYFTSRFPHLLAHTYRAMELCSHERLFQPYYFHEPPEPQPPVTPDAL
UniProt P21802, whole entry, looked up: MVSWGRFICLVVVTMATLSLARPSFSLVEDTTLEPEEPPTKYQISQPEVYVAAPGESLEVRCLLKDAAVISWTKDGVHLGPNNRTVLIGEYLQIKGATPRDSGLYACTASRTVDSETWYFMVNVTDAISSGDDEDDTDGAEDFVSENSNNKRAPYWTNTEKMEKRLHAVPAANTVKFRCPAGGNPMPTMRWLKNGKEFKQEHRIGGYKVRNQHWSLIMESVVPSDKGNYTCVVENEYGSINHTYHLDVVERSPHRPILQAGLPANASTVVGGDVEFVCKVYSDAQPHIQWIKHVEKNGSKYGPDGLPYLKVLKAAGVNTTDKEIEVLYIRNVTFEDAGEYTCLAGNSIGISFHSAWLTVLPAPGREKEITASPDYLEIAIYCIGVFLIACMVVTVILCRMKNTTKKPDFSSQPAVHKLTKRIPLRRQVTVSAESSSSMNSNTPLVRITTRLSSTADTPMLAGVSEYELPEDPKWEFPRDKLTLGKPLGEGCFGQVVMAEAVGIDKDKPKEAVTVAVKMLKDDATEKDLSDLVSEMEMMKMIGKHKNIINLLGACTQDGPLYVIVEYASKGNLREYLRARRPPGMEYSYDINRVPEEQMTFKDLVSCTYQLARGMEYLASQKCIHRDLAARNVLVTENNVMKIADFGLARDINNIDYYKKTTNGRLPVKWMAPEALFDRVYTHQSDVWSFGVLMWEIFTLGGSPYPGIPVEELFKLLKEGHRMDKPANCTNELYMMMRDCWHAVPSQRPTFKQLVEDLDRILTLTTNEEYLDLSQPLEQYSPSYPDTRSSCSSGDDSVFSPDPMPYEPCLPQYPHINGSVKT
UniProt P22607, whole entry, looked up: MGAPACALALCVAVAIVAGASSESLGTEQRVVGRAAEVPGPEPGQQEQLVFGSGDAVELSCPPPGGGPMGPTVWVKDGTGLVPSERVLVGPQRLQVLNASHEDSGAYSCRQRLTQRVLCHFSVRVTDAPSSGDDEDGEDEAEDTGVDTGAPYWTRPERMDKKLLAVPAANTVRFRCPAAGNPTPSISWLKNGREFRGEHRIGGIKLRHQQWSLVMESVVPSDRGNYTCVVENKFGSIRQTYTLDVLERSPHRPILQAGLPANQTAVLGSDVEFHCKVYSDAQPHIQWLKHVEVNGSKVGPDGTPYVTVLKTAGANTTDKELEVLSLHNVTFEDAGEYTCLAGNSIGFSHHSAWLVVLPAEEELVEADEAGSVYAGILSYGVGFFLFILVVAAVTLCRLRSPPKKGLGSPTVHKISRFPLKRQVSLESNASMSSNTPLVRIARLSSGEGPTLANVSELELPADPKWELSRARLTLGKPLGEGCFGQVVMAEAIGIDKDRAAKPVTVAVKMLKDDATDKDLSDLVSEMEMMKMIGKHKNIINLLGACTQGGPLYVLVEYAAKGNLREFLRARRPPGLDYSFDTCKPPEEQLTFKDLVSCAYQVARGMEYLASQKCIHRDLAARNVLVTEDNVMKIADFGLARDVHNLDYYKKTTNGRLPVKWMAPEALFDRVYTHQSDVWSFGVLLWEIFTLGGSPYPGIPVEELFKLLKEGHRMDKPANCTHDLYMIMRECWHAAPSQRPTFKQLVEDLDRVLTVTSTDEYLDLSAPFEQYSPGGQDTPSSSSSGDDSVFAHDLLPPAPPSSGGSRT

Legend:
Experiment in all cases: number of time points (of 5) at which kinase-Nluc abundance scored as decreased, DMSO-normalised (count); higher = more persistent destabilization
Settings in all cases: K562; 2-18 h
EGFR_L861Q = EGFR_L861Q (UniProt P00533)
EGFR_T790M = EGFR_T790M (UniProt P00533)
EPHA2 = EPHA2 (UniProt P29317)
ERBB3 = ERBB3 (UniProt P21860)
[1] = target: ERBB4_R711C (clone: ERBB4_mut) (UniProt Q15303)
ERN1 = ERN1 (UniProt O75460)
FGFR1 = FGFR1 (UniProt P11362)
FGFR2 = FGFR2 (UniProt P21802)
FGFR3 = FGFR3 (UniProt P22607)
FGR = FGR (UniProt P09769)

Row | SMILES | number of time points (EGFR_L861Q) | number of time points (EGFR_T790M) | number of time points (EPHA2) | number of time points (ERBB3) | number of time points [1] | number of time points (ERN1) | number of time points (FGFR1) | number of time points (FGFR2) | number of time points (FGFR3) | number of time points (FGR)
1 | CCc1c(C)sc(NC(=S)NC(=O)c2ccc(Cl)cc2)c1C(N)=O (10 µM) | 0 | 0 | 0 | 0 | 0 | 0 | 0 | 0 | 0 | 0
2 | CCN(C)C(=O)c1ccc2c(C(=Nc3ccc(CN4CCCCC4)cc3)c3ccccc3)c(O)[nH]c2c1 (2.5 µM) | 0 | 0 | 0 | 0 | 0 | 0 | 0 | 0 | 0 | 0
3 | CCCCOc1ccc(CC/C=C2\SC(=O)N(CCN)C2=O)cc1 [K145 (hydrochloride)] (2.5 µM) | 0 | 0 | 0 | 0 | 0 | 0 | 0 | 0 | 0 | 0
4 | O[C@H]1CC[C@H](Nc2ncc3nc(Nc4c(F)cc(F)cc4F)n([C@H]4CCOC4)c3n2)CC1 [Tanzisertib] (10 µM) | 0 | 0 | 0 | 0 | 0 | 0 | 0 | 0 | 0 | 0
5 | [O-][n+]1cccc(-c2nc3c(Cl)cccc3cc2[C@@H](Nc2ncnc3cccnc23)C(F)(F)F)c1 [Seletalisib] (10 µM) | 0 | 0 | 0 | 0 | 0 | 0 | 0 | 0 | 0 | 0
6 | CN(C)C(=O)c1ccc(S(=O)(=O)c2ccc(NC(=O)[C@@](C)(O)C(F)(F)F)c(Cl)c2)cc1 (10 µM) | 1 | 0 | 0 | 0 | 0 | 0 | 0 | 0 | 0 | 0
7 | O=C(NOCCO)c1ccc2cncn2c1Nc1ccc(I)cc1F (10 µM) | 2 | 0 | 0 | 2 | 1 | 0 | 0 | 2 | 0 | 0
8 | COc1nc(-c2cccc3c2OCCO3)ccc1Nc1ccc(CN(C)C)cc1 [RAS inhibitor Abd-7] (10 µM) | 0 | 0 | 0 | 0 | 0 | 0 | 0 | 0 | 0 | 0
9 | CC(C)(C)Cn1c(N)nc2ccc(-c3[nH]c(C(C)(C)C)nc3-c3ccc(F)cc3)nc21 [Ralimetinib dimesylate] (2.5 µM) | 0 | 0 | 0 | 0 | 0 | 0 | 0 | 0 | 0 | 0
10 | NCCCCCCNS(=O)(=O)c1cccc2c(Cl)cccc12 [W-7 (hydrochloride)] (10 µM) | 0 | 0 | 0 | 0 | 0 | 0 | 0 | 0 | 0 | 0
11 | CC[C@@H](N)CNc1ccnc(-c2cc(-c3cnn(C)c3)ccc2O)n1 (2.5 µM) | 3 | 0 | 0 | 0 | 3 | 0 | 0 | 0 | 0 | 0
12 | CCc1ccc(C(=O)COc2ccc(CC3SC(=O)NC3=O)cc2)nc1 (stereo not given) (10 µM) | 0 | 0 | 0 | 0 | 0 | 0 | 0 | 0 | 0 | 0
13 | CC(C)C[C@H](NC(=O)[C@H](CCCCN)NC(=O)[C@H](CO)NC(=O)[C@@H](N)CC(C)C)C(N)=O [LSKL, Inhibitor of Thrombospondin (TSP-1) (TFA)] (10 µM) | 0 | 0 | 0 | 0 | 0 | 0 | 0 | 0 | 0 | 0
14 | CN1C(=O)NC(Cc2c[nH]c3c(Cl)cccc23)C1=O (racemic) [Necrostatin 2 (racemate)] (10 µM) | 0 | 0 | 0 | 0 | 0 | 0 | 0 | 0 | 0 | 0
15 | CCc1cccc(CC)c1NC(=O)c1nn(C)c2c1CCc1cnc(Nc3ccc(C(=O)NC4CCN(C)CC4)cc3OC(F)(F)F)nc1-2 (2 µM) | 0 | 0 | 0 | 0 | 0 | 0 | 0 | 0 | 0 | 0
16 | CC(C)Oc1ccc(-c2cnc3c(-c4ccnc5ccccc45)cnn3c2)cc1 (10 µM) | 0 | 0 | 0 | 0 | 0 | 0 | 0 | 0 | 0 | 0
17 | Cn1cc(-c2ccc3nnc(C(F)(F)c4ccc5ncccc5c4)n3n2)cn1 (10 µM) | 0 | 0 | 0 | 0 | 0 | 0 | 0 | 0 | 0 | 0
18 | C[C@@H]1COCCN1c1cc(=O)n2c(n1)N(Cc1cncc(Cl)c1)[C@H](C(F)(F)F)CC2 (10 µM) | 0 | 0 | 0 | 0 | 0 | 0 | 0 | 0 | 0 | 0

5 entries out of the list, ordered by number of heavy atoms, descending.
Row | SMILES | number of time points (EGFR_L861Q) | number of time points (EGFR_T790M) | number of time points (EPHA2) | number of time points (ERBB3) | number of time points [1] | number of time points (ERN1) | number of time points (FGFR1) | number of time points (FGFR2) | number of time points (FGFR3) | number of time points (FGR)
4 | O[C@H]1CC[C@H](Nc2ncc3nc(Nc4c(F)cc(F)cc4F)n([C@H]4CCOC4)c3n2)CC1 [Tanzisertib] (10 µM) | 0 | 0 | 0 | 0 | 0 | 0 | 0 | 0 | 0 | 0
17 | Cn1cc(-c2ccc3nnc(C(F)(F)c4ccc5ncccc5c4)n3n2)cn1 (10 µM) | 0 | 0 | 0 | 0 | 0 | 0 | 0 | 0 | 0 | 0
12 | CCc1ccc(C(=O)COc2ccc(CC3SC(=O)NC3=O)cc2)nc1 (stereo not given) (10 µM) | 0 | 0 | 0 | 0 | 0 | 0 | 0 | 0 | 0 | 0
11 | CC[C@@H](N)CNc1ccnc(-c2cc(-c3cnn(C)c3)ccc2O)n1 (2.5 µM) | 3 | 0 | 0 | 0 | 3 | 0 | 0 | 0 | 0 | 0
1 | CCc1c(C)sc(NC(=S)NC(=O)c2ccc(Cl)cc2)c1C(N)=O (10 µM) | 0 | 0 | 0 | 0 | 0 | 0 | 0 | 0 | 0 | 0
